Measured values reported in PubChem BioAssay AID540256 (National Center for Advancing Translational Sciences (NCATS), 2011).
About 3,700 (1.2%) of roughly 300,000 compounds were called active. Inconclusive means that the source gave no clear call. Such entries were picked first, then a sample of the others. Calls follow the shape of the full dose curve; tested in HEK293 cells. Potencies beside an inconclusive call are fits to weak or partial responses and may not hold up.

test: qHTS for Inhibitors of binding or entry into cells for Lassa Virus; conditions: Lassa virus pseudotype entry inhibition, cell reporter; activity change, negative = inhibition: at 37.9 µM (top of the series) unless noted; also: nearly all actives have a fitted effect of over 50% in size
% is scaled to controls: 0 for no effect and ±100 for the full control effect; potency is read from the fitted curve at half-maximal effect.

Question: For `O=C(Nc1ccc(F)cc1)Nc1ccc2c(c1)OCO2`, which “activity change, negative = inhibition” value is on record?
Answer: inactive: -7.05% [at 46.1 µM]

Question: Which “activity change, negative = inhibition” value does the source give for `COc1ccc(N2CCN(C(=O)COC(=O)c3ccco3)CC2)cc1` here?
Answer: inactive: 9.23%

Question: For `COc1ccccc1CC(=O)Nc1ccc2nc(Nc3cccc(C(F)(F)F)c3)cc(C)c2c1`, which Potency is on record?
Answer: inconclusive: 11.2 µM [inhibitor, partial curve, poor fit]

Question: Which “activity change, negative = inhibition” value does the source give for `CC1CCCCN1C(=O)CSc1nnc(-c2cccnc2)o1` (configuration not stated) here?
Answer: inactive: 6.33% [at 46.1 µM]

Question: Which Potency does the source give for `O=C(NCCNC(=O)c1cc(OCC(F)(F)F)ccc1OCC(F)(F)F)Nc1cccc(C(F)(F)F)c1` here?
Answer: inconclusive: 29.1 µM [inhibitor, single point]

Question: For `Cc1cccc(NC(=O)/C(C#N)=C/c2ccco2)c1`, which Potency is on record?
Answer: inconclusive: 10 µM [activator, partial curve, poor fit]

Question: Which Potency does the source give for `CCCNC(=O)Cn1nc(-c2ccc(OC)cc2)c2cnc3ccc(F)cc3c21` here?
Answer: inconclusive: 3.55 µM [activator, single point]

Question: With `OCC1CCN(Cc2cn(Cc3ccccc3)nc2-c2cc3ccccc3o2)CC1` as the compound, how does the Potency read?
Answer: inconclusive: 0.794 µM [inhibitor, single point]

Question: Which Potency does the source give for `CCC(CO)n1c(SCc2cc([N+](=O)[O-])cc3c2OCOC3)nc2ccccc2c1=O` (configuration not stated) here?
Answer: inconclusive: 20 µM [inhibitor, single point]

Question: With `O=C(CN1CCN(c2ccc(O)cc2)CC1)Nc1ccc(S(=O)(=O)N2CCCC2)cc1` as the compound, how does the “activity change, negative = inhibition” value read?
Answer: inactive: 3.84% [at 46.1 µM]

Question: For `CC(=O)Nc1c(C(=O)O)oc2ccc(Cl)cc12`, which “activity change, negative = inhibition” value is on record?
Answer: inactive: -0.0924%

Question: For `O=C(c1ccc(COc2ccc3ccccc3c2)o1)N1N=C(C(F)F)CC1(O)C(F)F` (configuration not stated), which Potency is on record?
Answer: inconclusive: 35.5 µM [inhibitor, single point]

Question: With `O=c1cnn(Cc2c(Cl)cccc2Cl)c2ccccc12` as the compound, how does the “activity change, negative = inhibition” value read?
Answer: inactive: -24.2% [at 46.1 µM]

Question: For `CN(CC(=O)Nc1cccc(F)c1)C(=O)Cc1n[nH]c(=O)c2ccccc12`, which “activity change, negative = inhibition” value is on record?
Answer: inactive: -13.3%

Question: Which Potency does the source give for `CN(C)CCNC(C(=O)Nc1cc(Cl)cc(Cl)c1)c1ccccc1` (configuration not stated) here?
Answer: inconclusive: 3.16 µM [inhibitor, partial curve, poor fit]

Question: With `O=C(Nc1nc2n(n1)C(c1ccc(F)cc1)C=C(c1ccc(Cl)cc1)N2)c1ccc([N+](=O)[O-])cc1` (configuration not stated) as the compound, how does the Potency read?
Answer: inconclusive: 3.16 µM [inhibitor, full curve, poor fit]

Question: For `CCN(CC)C(=O)C1CCCN(C(=S)Nc2cccc3ccccc23)C1` (configuration not stated), which “activity change, negative = inhibition” value is on record?
Answer: inactive: -10%

Question: With `CC(C)CCOP(=O)(c1ccc(N(C)C)cc1)C(O)c1ccc(Cl)cc1Cl` (configuration not stated) as the compound, how does the Potency read?
Answer: inconclusive: 17.8 µM [inhibitor, single point]

Question: For `Cc1ccc(-c2cc(C(=O)N3CCN(c4ccccc4O)CC3)c3ccccc3n2)cc1`, which Potency is on record?
Answer: inconclusive: 5.01 µM [inhibitor, full curve, poor fit]

Question: For `Cc1ccc(C(=O)NCC(=O)Nc2cc(C)ccn2)cc1`, which “activity change, negative = inhibition” value is on record?
Answer: inactive: 15.1%

Question: With `CCN(c1ccccc1)S(=O)(=O)c1ccc(OC)c(NC(=O)C2=NN(c3ccccc3)C(=O)CC2)c1` as the compound, how does the Potency read?
Answer: active: 0.316 µM

Question: With `Cc1ccc(S(=O)(=O)N2CCC(=O)N(C(COCc3ccc(Cl)cc3)C(C)C)CC2)cc1` (configuration not stated) as the compound, how does the Potency read?
Answer: inconclusive: 23.1 µM [inhibitor, partial curve, poor fit]

Question: Which Potency does the source give for `FC(F)(F)c1ccc(-c2nc(-c3ccccc3)oc2Nc2ccc3ccccc3c2)cc1` here?
Answer: inconclusive: 2.99 µM [inhibitor, single point]

Question: For `COCCNC(=S)N/N=C(\C)c1ccc(OC)cc1`, which Potency is on record?
Answer: inconclusive: 13 µM [inhibitor, partial curve]

Question: Which Potency does the source give for `O=C(Nc1nccs1)c1sc2ccccc2c1Cl` here?
Answer: active: 12.6 µM

Question: For `COc1cccc(NC(=O)CSc2nnc(-c3cccc(OC)c3)o2)c1`, which Potency is on record?
Answer: inconclusive: 6.31 µM [activator, single point]

Question: Which Potency does the source give for `COc1ccc(NS(=O)(=O)c2cccc(C(=O)NNC(=O)c3ccccc3O)c2)cc1` here?
Answer: inconclusive: 35.5 µM [inhibitor, partial curve, poor fit]

Question: With `COC(=O)c1ccccc1NC(=O)c1ccc2c(c1)C(=O)N(Cc1ccco1)C2=O` as the compound, how does the “activity change, negative = inhibition” value read?
Answer: inactive: 6.35%

Question: With `S=C(NCCc1ccccn1)NC1CCCCC1` as the compound, how does the Potency read?
Answer: inconclusive: 20 µM [activator, single point]

Question: For `O=C(N/N=C/c1sc(N2CCOCC2)nc1-c1ccccc1)c1ccccc1F`, which Potency is on record?
Answer: inconclusive: 3.55 µM [inhibitor, partial curve, poor fit]

Question: For `COc1cc2c(cc1NC(=O)Nc1ccccc1)oc1ccccc12`, which “activity change, negative = inhibition” value is on record?
Answer: inactive: -18.8%

Question: Which “activity change, negative = inhibition” value does the source give for `CCc1nc(SCc2cccnc2)c(C#N)cc1C` here?
Answer: inactive: 0.959%

Question: For `O=C(N/C(=C/c1ccc(Br)cc1)c1nc2ccccc2[nH]1)c1ccco1`, which “activity change, negative = inhibition” value is on record?
Answer: inactive: 0.451%

Question: For `Cc1nnc(SCc2cc(=O)[nH]c(N3CCCCC3)n2)s1`, which Potency is on record?
Answer: inconclusive: 0.73 µM [activator, full curve]

Question: Which “activity change, negative = inhibition” value does the source give for `Cc1ccc(-c2csc3nc(C)n(-n4c(C)ccc4C)c(=O)c23)o1` here?
Answer: inactive: -14.6%

Question: Which Potency does the source give for `Cc1ccc(NC(=O)CN2C(=O)NC(C)(c3ccc(Cl)cc3)C2=O)cc1` (configuration not stated) here?
Answer: inconclusive: 15.8 µM [inhibitor, single point]

Question: Which “activity change, negative = inhibition” value does the source give for `CCOc1ccccc1CNC(=O)c1ccc(CS(=O)Cc2cccc(Cl)c2)o1` (configuration not stated) here?
Answer: inactive: -1.03% [at 46.1 µM]

Question: With `CCOC(=O)c1nc(C)n(-c2cc(OC)c(Cl)cc2Cl)n1` as the compound, how does the “activity change, negative = inhibition” value read?
Answer: inactive: -0.101%

Question: Which Potency does the source give for `COc1ccc(S(=O)(=O)c2c(Nc3ccccc3F)sc(C(=O)c3cccc(OC)c3)c2N)cc1` here?
Answer: inconclusive: 7.08 µM [inhibitor, partial curve]

Question: For `CCc1ccc(NC(=O)NCCc2c(C)nn(C)c2C)cc1`, which Potency is on record?
Answer: inconclusive: 7.08 µM [activator, partial curve, poor fit]

Question: Which “activity change, negative = inhibition” value does the source give for `Fc1ccc(COc2cccc(CNCc3ccncc3)c2)cc1` here?
Answer: inactive: -10.9%

Question: For `CCc1ccc(NC(=O)CC2C(=O)NCCN2C(=O)c2ccc(F)cc2)cc1` (configuration not stated), which Potency is on record?
Answer: inconclusive: 17.8 µM [inhibitor, single point]

Question: With `COc1cccc(NC(=S)NNC(=O)Cn2nc([N+](=O)[O-])cc2C)c1` as the compound, how does the Potency read?
Answer: inconclusive: 35.5 µM [inhibitor, single point]

Question: Which Potency does the source give for `O=c1c2ccc(Cl)cc2nc(-c2cccc(C(F)(F)F)c2)n1O` here?
Answer: active: 2.51 µM

Question: With `O=[N+]([O-])c1ccc(C(O)CNC(=S)Nc2ccccc2)cc1` (configuration not stated) as the compound, how does the “activity change, negative = inhibition” value read?
Answer: inactive: -30%

Question: For `COCCCn1c(=S)[nH]c2c(sc3ccccc32)c1=O`, which “activity change, negative = inhibition” value is on record?
Answer: inactive: 25.5%

Question: Which Potency does the source give for `CCc1cc(C(=O)Nc2c(C)nn(Cc3ccccc3Cl)c2C)no1` here?
Answer: inconclusive: 35.5 µM [inhibitor, single point]
